Experimental data: PMC6941357, “An in vitro toolbox to accelerate anti-malarial drug discovery and development” (Malaria Journal, 2020)

By UniProt entry, the sequences of proteins in these tests, tags left out. Residues count along the entry.
UniProt P02769, 25-607: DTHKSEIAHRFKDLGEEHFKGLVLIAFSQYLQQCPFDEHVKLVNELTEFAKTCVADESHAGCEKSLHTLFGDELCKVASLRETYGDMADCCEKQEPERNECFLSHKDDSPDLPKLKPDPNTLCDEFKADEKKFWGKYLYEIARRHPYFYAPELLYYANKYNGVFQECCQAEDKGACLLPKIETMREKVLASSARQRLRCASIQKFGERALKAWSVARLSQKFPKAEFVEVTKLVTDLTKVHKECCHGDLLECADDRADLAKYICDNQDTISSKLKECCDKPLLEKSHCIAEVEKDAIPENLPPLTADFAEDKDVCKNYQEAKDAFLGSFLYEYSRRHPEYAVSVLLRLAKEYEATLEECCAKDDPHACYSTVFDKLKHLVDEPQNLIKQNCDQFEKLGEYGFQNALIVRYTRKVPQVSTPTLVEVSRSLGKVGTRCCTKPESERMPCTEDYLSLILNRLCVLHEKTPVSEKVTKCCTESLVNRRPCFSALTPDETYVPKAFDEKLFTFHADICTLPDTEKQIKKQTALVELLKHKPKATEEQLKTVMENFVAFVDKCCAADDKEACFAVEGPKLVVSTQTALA

Assays:
[1] = Binding in DMEM with 10% FCS via ultracentrifugation; type: in vitro ADME, calf; conditions: bovine, pH 7.4
Procedure: Dulbecco’s Modified Eagle’s Medium (DMEM) containing GlutaMAX-I was purchased from Invitrogen (Thermo Fisher Scientific) and stored at 4 °C. Medium was prepared by adding heat inactivated foetal calf serum (FCS, final 10% v/v), penicillin (final 100 U/mL), streptomycin (final 100 µg/mL) D-glucose (final 4.0 mg/mL) and sodium pyruvate (final 0.1 mg/mL).
(§1) An ultracentrifugation method adapted from a previous publication was initially used to assess plasma protein binding and binding in the other media. […] Additional ultracentrifuge tubes containing spiked matrix were maintained at 37 °C, 5% or 10% CO2 or normal atmosphere conditions, with aliquots being taken within 0.5 h of the start and at the end of ultracentrifugation to serve as controls for the assessment of stability and to obtain a measure of the total concentration (Ctotal). […]
(§2) Total matrix and protein free samples were analysed using a matrix matching approach whereby each sample was mixed in a 1:1 ratio with the opposite blank medium (i.e. blank total matrix or blank protein free buffer). […] The standard deviation for fu was calculated using the propagation of errors approach as described previously. The potential for compound degradation was assessed by comparing the average value for Ctotal at the start and end of the experiment.

[2] = Plasma protein binding via ultracentrifugation (UC); type: in vitro ADME; conditions: human, neat pooled plasma, pH 7.4
Procedure: Pooled human plasma (n = 3–4 donors) was obtained by centrifugation of blood (collected by the Australian Red Cross Blood Service, Melbourne, Australia or the Volunteer Blood Donor Registry, Clinical Translation Centre, Walter & Eliza Hall Institute of Medical Research, Parkville, Australia), or sourcing pooled plasma directly from commercial sources (Innovative Research Inc, MI) and stored frozen at − 80 °C.
as §1, §2

human plasma = conditions: methods UF, ED, EP or not described per compound, ref [6]–[22] of Additional file 1; cited from earlier work
[3] = molecular target: T1, Albumax medium (lipid rich bovine serum albumin) (Bos taurus, UniProt P02769); experiment: Binding in Albumax medium via ultracentrifugation; type: in vitro ADME; conditions: pH 7.4
T1 construct: purchased Gibco, Thermo Fisher Scientific
Procedure: An ultracentrifugation method adapted from a previous publication was initially used to assess plasma protein binding and binding in the other media. […] Additional ultracentrifuge tubes containing spiked matrix were maintained at 37 °C, 5% or 10% CO2 or normal atmosphere conditions, with aliquots being taken within 0.5 h of the start and at the end of ultracentrifugation to serve as controls for the assessment of stability and to obtain a measure of the total concentration (Ctotal). Following ultracentrifugation, the pH was checked and an aliquot of protein-free supernate was taken from each ultracentrifuge tube for determination of the unbound concentration (Cunbound).
as §2, with “buffer). For example, plasma samples were mixed with blank pH 7.4 buffer whereas plasma supernatant samples were mixed with blank plasma.” for “buffer).”

fraction unbound at […], 1000 ng/mL [1]: 0.87 ± 0.058 | fraction unbound at […] [2]: 0.32 ± 0.024 | fraction unbound at […], 500 ng/mL [3]: 0.67 ± 0.12
Structure (SMILES): Cc1cc(NS(=O)(=O)c2ccc(N)cc2)no1 [Sulfamethoxazole]
Literature fu (human plasma): 0.27
